The record followed here is article PMC12669767.

These are yes or no findings as the source states them, for the method shown. Binding seen in cells or lysates may run through a third protein. Some entries that bind do so weakly or less than the wild type. Tags and fused reporters may be left off the sequences shown.

This assay addresses T1, ALFA-tagged TXNIP re-expressed in RPE1 TXNIP^KO cells (human), Q9H3M7.
T1 chain: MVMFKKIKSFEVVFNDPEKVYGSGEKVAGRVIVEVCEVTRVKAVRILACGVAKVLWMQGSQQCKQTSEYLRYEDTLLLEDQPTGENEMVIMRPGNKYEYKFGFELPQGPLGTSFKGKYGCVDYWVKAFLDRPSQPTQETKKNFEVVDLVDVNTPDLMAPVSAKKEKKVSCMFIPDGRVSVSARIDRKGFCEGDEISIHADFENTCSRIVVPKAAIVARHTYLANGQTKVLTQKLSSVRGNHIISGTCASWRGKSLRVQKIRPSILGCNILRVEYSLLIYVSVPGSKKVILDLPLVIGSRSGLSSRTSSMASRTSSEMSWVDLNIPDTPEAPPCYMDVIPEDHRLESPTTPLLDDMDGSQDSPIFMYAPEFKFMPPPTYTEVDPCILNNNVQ
In words: co-IP; non-denaturing IP of ALFA-TXNIP from RPE1 TXNIP^KO cells on ALFA Selector ST beads, 3 h at 4 °C; 30 mM Tris pH 7.5, 120 mM NaCl, 20 mM NaF, 0.5% octyl-β-D-glucopyranoside; Western blot; WT cells without ALFA-TXNIP as control. Conditions: remark: other sources report otherwise. On the technique in general: In western blotting, separated proteins are transferred to a membrane and probed.

B1: NEDD4L, endogenous in RPE1, Q96PU5 1-975 (enzyme)
chain: MATGLGEPVYGLSEDEGESRILRVKVVSGIDLAKKDIFGASDPYVKLSLYVADENRELALVQTKTIKKTLNPKWNEEFYFRVNPSNHRLLFEVFDENRLTRDDFLGQVDVPLSHLPTEDPTMERPYTFKDFLLRPRSHKSRVKGFLRLKMAYMPKNGGQDEENSDQRDDMEHGWEVVDSNDSASQHQEELPPPPLPPGWEEKVDNLGRTYYVNHNNRTTQWHRPSLMDVSSESDNNIRQINQEAAHRRFRSRRHISEDLEPEPSEGGDVPEPWETISEEVNIAGDSLGLALPPPPASPGSRTSPQELSEELSRRLQITPDSNGEQFSSLIQREPSSRLRSCSVTDAVAEQGHLPPPSAPAGRARSSTVTGGEEPTPSVAYVHTTPGLPSGWEERKDAKGRTYYVNHNNRTTTWTRPIMQLAEDGASGSATNSNNHLIEPQIRRPRSLSSPTVTLSAPLEGAKDSPVRRAVKDTLSNPQSPQPSPYNSPKPQHKVTQSFLPPGWEMRIAPNGRPFFIDHNTKTTTWEDPRLKFPVHMRSKTSLNPNDLGPLPPGWEERIHLDGRTFYIDHNSKITQWEDPRLQNPAITGPAVPYSREFKQKYDYFRKKLKKPADIPNRFEMKLHRNNIFEESYRRIMSVKRPDVLKARLWIEFESEKGLDYGGVAREWFFLLSKEMFNPYYGLFEYSATDNYTLQINPNSGLCNEDHLSYFTFIGRVAGLAVFHGKLLDGFFIRPFYKMMLGKQITLNDMESVDSEYYNSLKWILENDPTELDLMFCIDEENFGQTYQVDLKPNGSEIMVTNENKREYIDLVIQWRFVNRVQKQMNAFLEGFTELLPIDLIKIFDENELELLMCGLGDVDVNDWRQHSIYKNGYCPNHPVIQWFWKAVLLMDAEKRIRLLQFVTGTSRVPMNGFAELYGSNGPQLFTIEQWGSPEKLPRAHTCFNRLDLPPYETFEDLREKLLMAVENAQGFEGVD
In the case of B1, the binding result is “binds”.
